PMC10740027

T1: UBE2O, tagged, expressed from a plasmid (UniProt Q9C0C9)
T1 sequence: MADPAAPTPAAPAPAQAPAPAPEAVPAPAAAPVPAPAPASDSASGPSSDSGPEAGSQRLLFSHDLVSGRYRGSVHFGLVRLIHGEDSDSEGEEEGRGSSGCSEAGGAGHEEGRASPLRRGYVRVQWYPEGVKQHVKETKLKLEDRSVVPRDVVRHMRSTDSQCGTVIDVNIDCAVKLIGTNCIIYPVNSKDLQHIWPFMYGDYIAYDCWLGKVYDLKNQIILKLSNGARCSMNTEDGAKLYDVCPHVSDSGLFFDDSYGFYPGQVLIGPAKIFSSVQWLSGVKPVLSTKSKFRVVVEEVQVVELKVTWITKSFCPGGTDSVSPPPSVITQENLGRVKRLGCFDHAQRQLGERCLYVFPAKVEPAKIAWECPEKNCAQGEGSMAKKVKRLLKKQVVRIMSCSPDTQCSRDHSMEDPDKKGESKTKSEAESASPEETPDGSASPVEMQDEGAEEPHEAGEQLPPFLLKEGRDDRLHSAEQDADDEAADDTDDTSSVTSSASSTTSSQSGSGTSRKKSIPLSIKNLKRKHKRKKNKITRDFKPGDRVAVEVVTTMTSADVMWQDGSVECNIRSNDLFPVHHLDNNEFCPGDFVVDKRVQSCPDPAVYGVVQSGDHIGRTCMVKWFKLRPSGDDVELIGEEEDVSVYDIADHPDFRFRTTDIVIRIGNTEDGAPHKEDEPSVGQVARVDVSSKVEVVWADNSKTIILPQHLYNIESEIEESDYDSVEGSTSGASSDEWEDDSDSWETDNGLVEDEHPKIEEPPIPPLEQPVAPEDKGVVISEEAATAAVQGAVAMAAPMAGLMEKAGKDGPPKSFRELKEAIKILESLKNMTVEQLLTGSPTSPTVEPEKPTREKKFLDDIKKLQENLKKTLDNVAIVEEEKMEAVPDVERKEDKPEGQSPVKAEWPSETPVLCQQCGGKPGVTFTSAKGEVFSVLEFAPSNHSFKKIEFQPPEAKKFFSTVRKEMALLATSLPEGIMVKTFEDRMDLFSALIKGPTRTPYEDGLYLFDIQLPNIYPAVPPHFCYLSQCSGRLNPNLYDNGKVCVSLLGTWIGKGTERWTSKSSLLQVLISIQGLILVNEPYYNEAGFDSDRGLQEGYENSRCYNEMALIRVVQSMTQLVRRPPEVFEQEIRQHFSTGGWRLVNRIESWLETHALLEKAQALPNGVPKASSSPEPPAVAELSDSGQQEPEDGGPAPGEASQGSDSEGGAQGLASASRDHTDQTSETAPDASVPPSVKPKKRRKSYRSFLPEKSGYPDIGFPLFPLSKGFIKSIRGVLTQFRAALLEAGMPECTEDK


Key:
[1] = molecular target: T1, UBE2O, tagged, expressed from a plasmid; assay: co-IP; truncation mutants of IFIT3 and UBE2O; tagged plasmids transfected into 293 T cells; IP with anti-HA and anti-Myc antibodies, IB with the corresponding antibodies
[2] = molecular target: D2 structural domain of UBE2O (truncation mutant); assay: as above

Molecule	binding [1]	binding [2]
N-terminus of IFIT3 (truncation mutant) (domain or fragment)	binds	
IFIT3, tagged, expressed from a plasmid (protein, UniProt O14879 1-490) MSEVTKNSLEKILPQLKCHFTWNLFKEDSVSRDLEDRVCNQIEFLNTEFKATMYNLLAYIKHLDGNNEAALECLRQAEELIQQEHADQAEIRSLVTWGNYAWVYYHLGRLSDAQIYVDKVKQTCKKFSNPYSIEYSELDCEEGWTQLKCGRNERAKVCFEKALEEKPNNPEFSSGLAIAMYHLDNHPEKQFSTDVLKQAIELSPDNQYVKVLLGLKLQKMNKEAEGEQFVEEALEKSPCQTDVLRSAAKFYRRKGDLDKAIELFQRVLESTPNNGYLYHQIGCCYKAKVRQMQNTGESEASGNKEMIEALKQYAMDYSNKALEKGLNPLNAYSDLAEFLETECYQTPFNKEVPDAEKQQSHQRYCNLQKYNGKSEDTAVQHGLEGLSISKKSTDKEEIKDQPQNVSENLLPQNAPNYWYLQGLIHKQNGDLLQAAKCYEKELGRLLRDAPSGIGSIFLSASELEDGSEEMGQGAVSSSPRELLSNSEQLN		binds

Results are given in words; binding and its absence hold for the method and conditions named. Binding seen in cells or lysates may run through a third protein. Binding can be weak; no strength is given. Where a sequence is shown, tags or fusion partners need not be part of it.
